From PubChem BioAssay AID504834 (National Center for Advancing Translational Sciences (NCATS), 2011)
The campaign covered roughly 320,000 compounds. About 22,000 (6.9%) were called active. Inconclusive results, whose numbers are uncertain, are shown with a selection of clear calls. Calls come from the whole dose curve; as a rule, active = well fitted inhibition curve with a large enough effect; inconclusive = small, poorly fitted or top-dose-only effect, or another doubt; inactive = no such curve, though single readings can be large or run the other way. Potencies beside an inconclusive call are fits to weak or partial responses and may not hold up.

Assay: Primary qHTS for delayed death inhibitors of the malarial parasite plastid, 96 hour incubation
Details: P. falciparum luciferase reporter growth; series mostly up to 28.7 µM
Summary of the method: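 Cell-based qHTS: luciferase-tagged P. falciparum in erythrocytes (2% hematocrit, 0.05% parasitemia final) incubated with compounds for 96 hours, 37 C, 5% CO2; luciferase detection reagent then added and luminescence measured.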
Potency is the fitted concentration of half-maximal effect.

SMILES | Potency
Cc1sc2ncn(CCC(=O)O)c(=O)c2c1C | inconclusive: 18.5 µM [inhibitor, single point]
COc1ccccc1NC(=O)C1CCCN(C(=O)NCc2ccccc2)C1 (centres undefined) | inconclusive: 0.185 µM [inhibitor, full curve, poor fit]
COc1cc(/C=C/C(=O)OCC(=O)N2CCC(C)CC2)ccc1OCC#N | inconclusive: 18.5 µM [inhibitor, single point]
Cc1cc(N2C(=O)C(=O)/C(=C(/O)c3ccc(F)cc3)C2c2ccc(F)cc2)no1 (centres undefined) | active: 0.828 µM
O=C(CN1CCN(Cc2ccccc2Cl)CC1)N/N=C/c1ccccn1 | inconclusive: 11.7 µM [inhibitor, single point]
CC(=O)Nc1ccc(S(=O)(=O)N2CCC(C(=O)N[C@@H](C)C(=O)NC3CCCC3)CC2)cc1 | inactive
CN(C)C(CNC(=O)c1ccc2c(c1)S(=O)(=O)c1ccccc1C2=O)c1ccco1 (centres undefined) | inconclusive: 18.5 µM [inhibitor, single point]
CCO[C@@H]1OC(C(=O)NCc2ccccc2)=C[C@H](c2coc3ccccc3c2=O)[C@H]1CCCO | inconclusive: 18.5 µM [inhibitor, single point]
Fc1ccccc1/C=C1\CCCC2=C1Nc1nnnn1C2c1ccccc1F (centres undefined) | inactive
Cc1ccc(NC(=O)c2ccccc2OCC(=O)Nc2cccc(Cl)c2C)nc1 | inactive
CCC(=O)NC(/C=C/c1ccccc1)c1cc([N+](=O)[O-])c2cccnc2c1O (centres undefined) | inactive
O=C(CN1CCN(c2ccccn2)CC1)Nc1ccc(OCc2ccccc2)cc1 | inconclusive: 0.0029 µM [inhibitor, full curve, poor fit]
O=C(CNC(=S)N(Cc1ccccc1)Cc1ccccc1F)NCCc1ccc(Cl)cc1 | inconclusive: 1.31 µM [inhibitor, partial curve, poor fit]
CCOC(=O)c1c(CC(C)C)csc1NC(=O)COC(=O)c1ccc(O)cc1 | active: 9.28 µM
Cc1ccc(/C=N\NC(=O)Cn2c(C)nc3ccccc32)o1 | inconclusive: 20.8 µM [inhibitor, partial curve, poor fit]
CC(C)OC(=O)c1c(NC(=O)c2cnn3c2NC(c2ccccc2)CC3C(F)F)sc2c1CCCC2 (centres undefined) | inactive
OCC1OC(n2nc3ccccc3n2)C(O)C(O)C1O (centres undefined) | inconclusive: 0.37 µM [inhibitor, full curve, poor fit]
O=C(NNS(=O)(=O)c1ccc(F)cc1)c1ccc(S(=O)(=O)N2CCCCC2)cc1 | inconclusive: 18.5 µM [inhibitor, single point]
C[C@H](NC(=O)CCCOc1ccc(Cl)cc1Cl)c1nnc2ccccn12 | inactive
COc1ccc(NC(=S)NC(=O)c2cncc(Br)c2)c(OC)c1 | inactive
N#CC(=C=[N-])c1nc2ccccc2nc1-[n+]1cccc(NC(=O)c2ccc(F)cc2)c1 | inconclusive: 5.22 µM [inhibitor, partial curve]
COc1ccccc1OCC(=O)Nc1ccncc1 | active: 0.522 µM

SMILES | Potency
O=C(Nc1ccc2c(c1)OCO2)c1c[nH]c(=O)n(-c2ccc(F)cc2)c1=O | inconclusive: 11.7 µM [inhibitor, partial curve]
CCOc1ccccc1Nc1nnc(SCC(=O)N2CCCC2)s1 | inconclusive: 7.38 µM [inhibitor, partial curve]
CCN=C1SC(C(=O)NCCc2ccccc2)CC(=O)N1CC (centres undefined) | inactive
CCN(CC)CCNC(=O)c1ccc(NC(=O)c2cn(-c3ccccc3)nc2-c2cccs2)cc1 | inconclusive: 0.37 µM [inhibitor, full curve, poor fit]
CN1CCN(CCc2nc3cc(NC(=O)COc4ccc([N+](=O)[O-])cc4)ccc3n2C)CC1 | inconclusive: 16.5 µM [inhibitor, single point]
CCC(=O)OCCn1c(=O)c2cc3c(=O)n(CCOC(=O)CC)c(=O)c3cc2c1=O | inconclusive: 2.33 µM [inhibitor, partial curve, poor fit]
COc1cccc(-c2csc(N3CCN(C(=O)C4CCCCC4)CC3)n2)c1 | inactive
COc1ccc(-c2n(Cc3ccccc3)c3ccccc3[n+]2Cc2ccccc2)cc1 | inconclusive: 0.657 µM [inhibitor, full curve]
Cn1cccc1-c1nc2ccc(NC(=O)c3ccc([N+](=O)[O-])cc3)cc2[nH]1 | inconclusive: 8.28 µM [inhibitor, partial curve, poor fit]
O=C(Oc1ccc2ccc(OC(=O)N3CCOCC3)cc2c1)N1CCOCC1 | active: 10.4 µM
COC(=O)c1c(C)[nH]c(C(=O)CC#N)c1C | inactive
Cc1ccccc1NC(=O)c1cc2ccccc2o1 | active: 10.4 µM
NC(=NC(=O)c1ccccc1)N1CCN(C(c2ccccc2)c2ccccc2)CC1 | inconclusive: 9.28 µM [inhibitor, partial curve]
Cc1ccc2[nH]c(=O)c3cc(C(=O)NC(C)C)sc3c2c1 | inconclusive: 10.4 µM [inhibitor, partial curve]
CCc1ccc(NS(=O)(=O)c2ccc3c(c2)oc(=O)n3C)cc1 | inactive
O=S(=O)(NCc1cn2ccccc2n1)c1cc(F)ccc1F | inactive
CC1CN(S(=O)(=O)c2ccccc2)C(C)N1C(=O)N1CCOCC1 (centres undefined) | inactive
COc1ccc(N(C)C(=O)c2ccc3c(Cl)c4c(nc3c2)CCCC4)c(OC)c1 | inconclusive: 13.1 µM [inhibitor, single point]
O=S(=O)(c1ccc2c(c1)C(=NO)c1cc(S(=O)(=O)N3CCCCC3)ccc1-2)N1CCCCC1 | inconclusive: 13.1 µM [inhibitor, single point]
N#Cc1c(C(F)(F)F)cc(-c2cccs2)nc1SCC(=O)O | inconclusive: 10.4 µM [inhibitor, partial curve, poor fit]
CCOC(=O)c1ccc(N/C=C/C(=O)c2ccco2)cc1 | inactive
CCCn1cc(S(=O)(=O)CC(=O)Nc2ccc(OC)cc2OC)c2ccccc21 | inconclusive: 0.415 µM [inhibitor, partial curve, poor fit]

In the list so far, four have two or more sulfur atoms.
SMILES | Potency
O=C(NNS(=O)(=O)c1ccc(F)cc1)c1ccc(S(=O)(=O)N2CCCCC2)cc1 | inconclusive: 18.5 µM [inhibitor, single point]
CCOc1ccccc1Nc1nnc(SCC(=O)N2CCCC2)s1 | inconclusive: 7.38 µM [inhibitor, partial curve]
O=S(=O)(c1ccc2c(c1)C(=NO)c1cc(S(=O)(=O)N3CCCCC3)ccc1-2)N1CCCCC1 | inconclusive: 13.1 µM [inhibitor, single point]
N#Cc1c(C(F)(F)F)cc(-c2cccs2)nc1SCC(=O)O | inconclusive: 10.4 µM [inhibitor, partial curve, poor fit]
